Measurements from patent US20170189504A1, “NOVEL PEPTIDES AND COMBINATION OF PEPTIDES FOR USE IN IMMUNOTHERAPY AGAINST VARIOUS CANCERS” (immatics biotechnologies GmbH, priority 2015, published 2017).
For some assays here: For expression read-outs the peptide stands for its source gene, whose mRNA was measured; the gene is not named for every peptide.

Legend:
HLA-A*02 = assay: Identification and relative LC-MS quantitation of HLA-A*02-presented tumor-associated peptides on tissue samples (presentation profiles, Tables 13A, 13B, 15, FIG. 1); parameters: species or system human; key to Presentation score NHL / Presentation score CLL / Presentation score BRCA / Presentation score AML / Presentation score GB / Presentation score NSCLC / Presentation score GBC_CCC / Presentation score UEC / Presentation score MEL / Presentation score OSCAR / Presentation score GC / Presentation score UBC / Presentation score OC / Presentation score RCC / Presentation score CRC / Presentation score PCA / Presentation score HCC / Presentation score PC / Presentation score SCLC: specifically presented on tumors (++++); very highly over-presented on tumors compared to a panel of normal tissues (+++); highly over-presented on tumors compared to a panel of normal tissues (++); over-presented on tumors compared to a panel of normal tissues (+); details: for Presentation score CLL: chronic lymphocytic leukemia (N = 17) vs panel of normal tissues (N = 262); for Presentation score NHL: non-Hodgkin lymphoma (N = 18) vs panel of normal tissues (N = 262); for Presentation score NSCLC: non-small cell lung cancer (N = 90) vs panel of normal tissues (N = 262); for Presentation score OC: ovarian cancer (N = 20) vs panel of normal tissues (N = 262); for Peptide Presentation on cancer entities: HLA-A*02-binding tumor-associated peptides; for Presentation score AML: acute myeloid leukemia (N = 18) vs panel of normal tissues (N = 262); for Presentation score PCA: prostate cancer and benign prostate hyperplasia (N = 39) vs panel of normal tissues (N = 262)
source genes (mRNA) [1] = assay: Expression profiling of source genes by in-house RNASeq of tumor and normal tissues (Table 18, FIG. 2); parameters: species or system human; key: very highly over-expressed in tumors compared to a panel of normal tissues (+++); highly over-expressed in tumors compared to a panel of normal tissues (++); over-expressed in tumors compared to a panel of normal tissues (+); details: source gene of peptide; for Expression score OSCAR: esophageal cancer incl. gastric-esophageal junction (N = 11) vs panel of normal tissues; for Expression score NHL: non-Hodgkin lymphoma (N = 10) vs panel of normal tissues; for Expression score UBC: urinary bladder cancer (N = 10) vs panel of normal tissues; for Expression score AML: acute myeloid leukemia (N = 11) vs panel of normal tissues
source genes (mRNA) [2] = assay: Gene and exon expression of source genes, TCGA tumor samples compared with normal tissue samples (Lonsdale, 2013) (Table 17); parameters: species or system human; details: for Target coverage: over-expression category of source gene, LAML: Acute Myeloid Leukemia (N = 173); for Target coverage: over-expression category of source gene, LAML / Target coverage: over-expression category of source gene, BLCA / Target coverage: over-expression category of source gene, CHOL / Target coverage: over-expression category of source gene, KIRC / Target coverage: over-expression category of source gene, READ / Target coverage: over-expression category of source gene, COAD / Target coverage: over-expression category of source gene, ESCA / Target coverage: over-expression category of source gene, GBM / Target coverage: over-expression category of source gene, KICH / Target coverage: over-expression category of source gene, LIHC / Target coverage: over-expression category of source gene, LGG / Target coverage: over-expression category of source gene, LUAD / Target coverage: over-expression category of source gene, LUSC / Target coverage: over-expression category of source gene, DLBC / Target coverage: over-expression category of source gene, OV / Target coverage: over-expression category of source gene, PAAD / Target coverage: over-expression category of source gene, KIRP / Target coverage: over-expression category of source gene, PRAD / Target coverage: over-expression category of source gene, SKCM / Target coverage: over-expression category of source gene, STAD / Target coverage: over-expression category of source gene, UCEC: cutoff more than 2-fold above highest 75% percentile of normal tissue samples; for Target coverage: over-expression category of source gene, BLCA: Bladder urothelial carcinoma (N = 408); for Target coverage: over-expression category of source gene, BRCA: Breast cancer (N = 1104), cutoff more than 2-fold above highest 75% percentile of high and medium risk normal tissue samples; for Target coverage: over-expression category of source gene, CHOL: Cholangiocarcinoma (N = 36); for Target coverage: over-expression category of source gene, KIRC: Clear cell kidney carcinoma (N = 534); for Target coverage: over-expression category of source gene, READ: Colon and rectal adenocarcinoma (N = 167); for Target coverage: over-expression category of source gene, COAD: Colon and rectal adenocarcinoma (N = 462); for Target coverage: over-expression category of source gene, ESCA: Esophageal cancer (N = 185); for Target coverage: over-expression category of source gene, GBM: Glioblastoma multiforme (N = 169); for Target coverage: over-expression category of source gene, KICH: Kidney chromophobe (N = 66); for Target coverage: over-expression category of source gene, LIHC: Liver hepatocellular carcinoma (N = 374); for Target coverage: over-expression category of source gene, LGG: Lower grade glioma (N = 534); for Target coverage: over-expression category of source gene, LUAD: Lung adenocarcinoma (N = 517); for Target coverage: over-expression category of source gene, LUSC: Lung squamous cell carcinoma (N = 503); for Target coverage: over-expression category of source gene, DLBC: Lymphoid neoplasm diffuse large B-cell lymphoma (N = 48); for Target coverage: over-expression category of source gene, OV: Ovarian serous cystadenocarcinoma (N = 309); for Target coverage: over-expression category of source gene, PAAD: Pancreatic ductal adenocarcinoma (N = 179); for Target coverage: over-expression category of source gene, KIRP: Papillary kidney carcinoma (N = 291); for Target coverage: over-expression category of source gene, PRAD: Prostate adenocarcinoma (N = 498); for Target coverage: over-expression category of source gene, SKCM: Skin cutaneous melanoma (N = 473); for Target coverage: over-expression category of source gene, STAD: Stomach adenocarcinoma (N = 415); for Target coverage: over-expression category of source gene, UCEC: Uterine corpus endometrial carcinoma (N = 546)
[3] = Table 13A, cancer entities on which the peptide was found presented
[4] = Table 13B, presentation on additional cancer entities

Substance	Presentation score CLL (HLA-A*02; HLA-A*02 peptides)	Presentation score NHL (HLA-A*02; HLA-A*02 peptides)	Presentation score NSCLC (HLA-A*02; HLA-A*02 peptides)	Presentation score OC (HLA-A*02; HLA-A*02 peptides)	Peptide Presentation on cancer entities (HLA-A*02; [3])	Peptide Presentation on cancer entities (HLA-A*02; [4])	Expression score OSCAR (source genes (mRNA) [1])	Expression score NHL (source genes (mRNA) [1])	Expression score UBC (source genes (mRNA) [1])	Target coverage: over-expression category of source gene, LAML (source genes (mRNA) [2])	Target coverage: over-expression category of source gene, BLCA (source genes (mRNA) [2])	Target coverage: over-expression category of source gene, BRCA (source genes (mRNA) [2])	Target coverage: over-expression category of source gene, READ (source genes (mRNA) [2])	Target coverage: over-expression category of source gene, COAD (source genes (mRNA) [2])	Target coverage: over-expression category of source gene, LIHC (source genes (mRNA) [2])	Target coverage: over-expression category of source gene, LUSC (source genes (mRNA) [2])	Target coverage: over-expression category of source gene, DLBC (source genes (mRNA) [2])	Target coverage: over-expression category of source gene, STAD (source genes (mRNA) [2])	Target coverage: over-expression category of source gene, UCEC (source genes (mRNA) [2])	Presentation score AML (HLA-A*02; HLA-A*02 peptides)	further results
47: peptide found in NOC4L (gene looked up) (ALLERGELFV; listed as Homo sapiens) [compound 47]	++++	++++	++++	++++	NSCLC, CLL, OC, NHL	OSCAR, UBC, AML	+	+	+	B (>= 20% of tumors above the cutoff, but <50%)	A (>=50% of tumors above the cutoff)	B (>= 20% of tumors above the cutoff, but <50%)	A (>=50% of tumors above the cutoff)	A (>=50% of tumors above the cutoff)	B (>= 20% of tumors above the cutoff, but <50%)	B (>= 20% of tumors above the cutoff, but <50%)	A (>=50% of tumors above the cutoff)	A (>=50% of tumors above the cutoff)	A (>=50% of tumors above the cutoff)		Target coverage: over-expression category of source gene, CHOL (source genes (mRNA) [2]): A (>=50% of tumors above the cutoff); Target coverage: over-expression category of source gene, KIRC (source genes (mRNA) [2]): C (>=5% of tumors above the cutoff, but <20%); Target coverage: over-expression category of source gene, ESCA (source genes (mRNA) [2]): A (>=50% of tumors above the cutoff); Target coverage: over-expression category of source gene, GBM (source genes (mRNA) [2]): B (>= 20% of tumors above the cutoff, but <50%); Target coverage: over-expression category of source gene, KICH (source genes (mRNA) [2]): B (>= 20% of tumors above the cutoff, but <50%); Target coverage: over-expression category of source gene, LGG (source genes (mRNA) [2]): B (>= 20% of tumors above the cutoff, but <50%); Target coverage: over-expression category of source gene, LUAD (source genes (mRNA) [2]): B (>= 20% of tumors above the cutoff, but <50%); Target coverage: over-expression category of source gene, OV (source genes (mRNA) [2]): A (>=50% of tumors above the cutoff); Target coverage: over-expression category of source gene, PAAD (source genes (mRNA) [2]): B (>= 20% of tumors above the cutoff, but <50%); Target coverage: over-expression category of source gene, KIRP (source genes (mRNA) [2]): A (>=50% of tumors above the cutoff); Target coverage: over-expression category of source gene, PRAD (source genes (mRNA) [2]): B (>= 20% of tumors above the cutoff, but <50%); Target coverage: over-expression category of source gene, SKCM (source genes (mRNA) [2]): A (>=50% of tumors above the cutoff)
53: peptide found in PUS1 (gene looked up) (KMVGLVVAI; listed as Homo sapiens) [compound 53]	+++	+++			CLL, AML, NHL	MEL	+	+	+		C (>=5% of tumors above the cutoff, but <20%)		B (>= 20% of tumors above the cutoff, but <50%)	B (>= 20% of tumors above the cutoff, but <50%)	C (>=5% of tumors above the cutoff, but <20%)	C (>=5% of tumors above the cutoff, but <20%)	A (>=50% of tumors above the cutoff)		B (>= 20% of tumors above the cutoff, but <50%)	+++	Expression score AML (source genes (mRNA) [1]): +; Expression score OC (source genes (mRNA) [1]; ovarian cancer (N = 12) vs panel of normal tissues): +
54: peptide found in FAM114A2 (gene looked up) (VLNPLITAV; listed as Homo sapiens) [compound 54]		+++	+++		NSCLC, PCA, AML, NHL	HCC, SCLC, UEC, MEL, RCC				A (>=50% of tumors above the cutoff)	B (>= 20% of tumors above the cutoff, but <50%)	A (>=50% of tumors above the cutoff)	B (>= 20% of tumors above the cutoff, but <50%)	B (>= 20% of tumors above the cutoff, but <50%)	B (>= 20% of tumors above the cutoff, but <50%)	B (>= 20% of tumors above the cutoff, but <50%)	A (>=50% of tumors above the cutoff)	B (>= 20% of tumors above the cutoff, but <50%)	B (>= 20% of tumors above the cutoff, but <50%)	+++	Presentation score PCA (HLA-A*02; HLA-A*02 peptides): +++; Expression score RCC (source genes (mRNA) [1]; renal cell carcinoma (N = 10) vs panel of normal tissues): +; Target coverage: over-expression category of source gene, CHOL (source genes (mRNA) [2]): A (>=50% of tumors above the cutoff); Target coverage: over-expression category of source gene, KIRC (source genes (mRNA) [2]): A (>=50% of tumors above the cutoff); Target coverage: over-expression category of source gene, ESCA (source genes (mRNA) [2]): B (>= 20% of tumors above the cutoff, but <50%); Target coverage: over-expression category of source gene, GBM (source genes (mRNA) [2]): A (>=50% of tumors above the cutoff); Target coverage: over-expression category of source gene, KICH (source genes (mRNA) [2]): A (>=50% of tumors above the cutoff); Target coverage: over-expression category of source gene, LGG (source genes (mRNA) [2]): A (>=50% of tumors above the cutoff); Target coverage: over-expression category of source gene, LUAD (source genes (mRNA) [2]): A (>=50% of tumors above the cutoff); Target coverage: over-expression category of source gene, OV (source genes (mRNA) [2]): B (>= 20% of tumors above the cutoff, but <50%); Target coverage: over-expression category of source gene, PAAD (source genes (mRNA) [2]): A (>=50% of tumors above the cutoff); Target coverage: over-expression category of source gene, KIRP (source genes (mRNA) [2]): A (>=50% of tumors above the cutoff); Target coverage: over-expression category of source gene, PRAD (source genes (mRNA) [2]): A (>=50% of tumors above the cutoff); Target coverage: over-expression category of source gene, SKCM (source genes (mRNA) [2]): A (>=50% of tumors above the cutoff)
55: peptide found in NEK10 (gene looked up) (SLATKIVEA; listed as Homo sapiens) [compound 55]				+++	PCA, OC, BRCA, AML					C (>=5% of tumors above the cutoff, but <20%)		B (>= 20% of tumors above the cutoff, but <50%)								+++	Presentation score BRCA (HLA-A*02; HLA-A*02 peptides, breast cancer (N = 17) vs panel of normal tissues (N = 262)): +++; Presentation score PCA (HLA-A*02; HLA-A*02 peptides): +++; Expression score BRCA (source genes (mRNA) [1]; BRCA tumors vs panel of normal tissues): +
56: peptide found in CD96 (gene looked up) (FLHDEKEGIYI; listed as Homo sapiens) [compound 56]		++++	++++	++++	NSCLC, OC, NHL	AML		+		A (>=50% of tumors above the cutoff)							C (>=5% of tumors above the cutoff, but <20%)	C (>=5% of tumors above the cutoff, but <20%)			Expression score AML (source genes (mRNA) [1]): +
